From patent US20090203050A1 (The Regents of the University of California, priority 2005, published 2009)
At least one compound was matched to its structure with a doubt left.

Key:
[1] = test system: rituximab-resistant Ramos clone (Ramos RR1); test: PI flow cytometry apoptosis, chemosensitization of Ramos RR1; assay type: cell-based, human; details: CDDP 15 μg/ml
human xenograft = details: mice bearing human xenograft; cited from earlier work
[2] = test system: Bcl-XL expression in Ramos cells; test: Western blot for Bcl-XL levels in Ramos; assay type: cell-based, human; details: rituximab 20 μg/ml, LY294002 25 μm, 24 h, Akt siRNA 0-72 h
Ramos cells = test: PI flow cytometry apoptosis, chemosensitization of Ramos; assay type: cell-based, human

O=c1cc(N2CCOCC2)oc2c(-c3ccccc3)cccc12 [LY294002]
sensitization to CDDP-induced apoptosis [1]: significant sensitization
tumor growth and apoptosis (human xenograft): inhibited tumor growth and induced apoptosis
Bcl-XL expression [2]: significantly inhibited
sensitization to ADR-induced apoptosis (Ramos cells; ADR 5 μg/ml): sensitizes cells
sensitization to CDDP-induced apoptosis (Ramos cells; pretreatment then CDDP 15 μg/ml 24 h): also sensitized the cells
